Measurements: article PMC8144621, “A two-hybrid system reveals previously uncharacterized protein–protein interactions within the Helicobacter pylori NIF iron–sulfur maturation system” (Scientific Reports, 2021)
No constants are given. Whether binding was seen depends on the method and setting. Binding calls can cover weak binding; strength is not graded here. Tags and fused reporters may be left off the sequences shown.

Columns and labels:
[1] = molecular target: T1, ApbC (HP0207), BACTH fusion (Helicobacter pylori strain 26695) (UniProt O24999); experiment: two-hybrid; BACTH in E. coli BTH101 (cya); T25 fusion (pKT25 or pKNT25) with T18 fusion (pUT18C); screening on LB-X-Gal plates with 0.5 mM IPTG, 0.1 mM FeCl3, 0.5 mM L-cysteine; 30 °C, 36-48 h, aerobic; positive clones turn blue
T1 sequence: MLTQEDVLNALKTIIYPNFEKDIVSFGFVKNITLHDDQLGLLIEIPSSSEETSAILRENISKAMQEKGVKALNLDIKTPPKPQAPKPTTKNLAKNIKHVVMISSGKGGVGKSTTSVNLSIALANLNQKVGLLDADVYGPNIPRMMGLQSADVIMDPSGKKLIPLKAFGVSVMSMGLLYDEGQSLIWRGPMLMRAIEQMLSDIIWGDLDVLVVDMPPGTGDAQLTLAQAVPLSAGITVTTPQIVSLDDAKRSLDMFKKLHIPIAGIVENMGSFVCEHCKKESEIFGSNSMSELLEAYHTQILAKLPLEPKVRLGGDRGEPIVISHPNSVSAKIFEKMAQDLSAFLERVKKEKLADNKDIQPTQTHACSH

[2] = molecular target: T1, ApbC (HP0207), BACTH fusion (Helicobacter pylori strain 26695); experiment: two-hybrid; BACTH (bacterial adenylate cyclase two-hybrid) in E. coli BTH101 (cya); T25 fusion (pKT25 or pKNT25) with T18 fusion (pUT18C); screening on MacConkey-maltose (MC-Mal) plates with 0.5 mM IPTG, 0.1 mM FeCl3, 0.5 mM L-cysteine; 30 °C, 36-48 h, aerobic; positive clones turn red
[3] = molecular target: T2, FdxA (HP0277), BACTH fusion (Helicobacter pylori strain 26695) (UniProt O25054); experiment: as above
T2 sequence: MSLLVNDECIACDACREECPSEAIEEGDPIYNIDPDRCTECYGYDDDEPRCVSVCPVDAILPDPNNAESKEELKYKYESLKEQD

| Substance | binding [1] | binding [2] | binding [3] |
| --- | --- | --- | --- |
| Nqo3 (HP1266), T18 fusion (from UniProt O25856) | binds | binds | – |
| [2Fe–2S] Ubiquinol cytochrome c oxidoreductase Rieske (HP1540), T18 fusion (from UniProt O26065) | – | – | binds |
| hydrogenase subunit HynA (HP0631), T18 fusion (from UniProt O25348) | binds | binds | – |
| pyruvate-ferredoxin oxidoreductase subunit (HP1109), T18 fusion (from UniProt O25737) | binds | binds | – |
